Laboratory results taken from PubChem BioAssay AID1645849 (National Center for Advancing Translational Sciences (NCATS), 2021).
This list was built around the results that the source calls inconclusive (neither active nor inactive); the mix of calls is not that of the screen. A potency beside an inconclusive call is a rough fit, not a confirmed value. The source made the active and inactive calls. Calls come from the whole dose curve; as a rule, active = well fitted inhibition curve with a large enough effect in the repeat runs; inconclusive = weak or mixed curves; inactive = no such curve, though single readings can be large or run the other way.

Experiment: Comparison of Janus kinase inhibitors to block the type I interferon pathway in human skeletal muscle cells: JAK inhibition assay
Conditions: IFN pathway HiBiT reporter; series mostly up to 45.9 µM; activity change, negative = inhibition: at the top concentration
Description: Assay Submitter: Travis B. Kinder Ph.D.
National Center for Advancing Translational Sciences (NCATS)
The family of Janus kinases (JAK1, JAK2, JAK3, TYK2) mediate signal transduction from cytokine receptors through phosphorylation and activation of intracellular signaling pathways and transcription factors. Small molecule antagonists of JAKs (jakinibs) have been developed with varying selectivity for the use in malignancies and immune regulation. […] We have assayed a library of 48 jakinibs for their ability to inhibit the JAK1/TYK2-dependent type I interferon (IFN) - major histocompatibility complex (MHC) class I pathway in human skeletal muscle cells genome-engineered to fuse a pro-luminescent HiBiT peptide to endogenous MHC class I.
The assay utilized CRISPR/Cas9 genome-engineered immortalized human myoblasts, C25cl48, where a pro-luminescent reporter HiBit was fused to the C-terminus of endogenous MHC class I allele HLA-B*08:01 (HLA-B HiBit myoblasts) (Kinder et al., 2020). HiBit is an 11 amino acid fragment of NanoLuc luminescent reporter (Promega Corporation), and when complexed to the larger LgBit fragment, the reconstituted enzyme produces light in the presence of furimazine substrate. Briefly, HLA-B HiBit myoblasts were plated into 1536-well plates, treated with 4.0 ng/ml human IFN-beta and 48 jakinibs in an 11-point, 1:3 titration with a high final concentration of 46 uM. After 24 hrs of treatment, cells were assayed by Nano-Glo HiBiT Lytic Detection System (Promega) and luminescence measured by a ViewLux 1430 Ultra HTS (Perkin Elmer).
Kinder TB, Dranchak PK, Inglese J. High-Throughput Screening to Identify Inhibitors of the Type I Interferon-Major Histocompatibility Complex Class I Pathway in Skeletal Muscle. ACS Chem Biol. 2020 Jul 17;15(7):1974-1986. doi: 10.1021/acschembio.0c00343
PROTOCOL TABLE (as described by Inglese et al., 2007)
SEQUENCE No. (e.g., 1, 2, 3, etc.); PARAMETER (e.g., Cells, Incubation, Reagent, etc.); VALUE; DESCRIPTION
1a; Cells; 5 uL; Seed 250 cells/well with a Multidrop Combi (Thermo Scientific) into two Greiner 1536 well white/solid bottom, high base, TC plates (789173-F) in 5 ul/well of growth medium (GM) without dexamethasone into columns 1+2
1b; Cells; 5 uL; Seed 250 cells/well with a Multidrop Combi (Thermo Scientific) into two Greiner 1536 well white/solid bottom, high base, TC plates (789173-F) in 5 ul/well of GM without dexamethasone + 4 ng/ml IFN-beta into columns 3 - 48. Add metal lids with gas-exchange holes
2; Incubate; 30 min; Incubate at 37C, 5% CO2, 95% RH
3; Compounds; 23 nl; Transfer DMSO control and library compounds in DMSO with Pin Tool (Wako)
4; Incubate; 24 hrs; Incubate at 37C, 5% CO2, 95% RH
5; Dispense; 2.5 ul; Add HiBit lytic reagent with a BioRAPTR FRD (Beckman Coulter)
6; Incubate; 10 min; Incubate in the dark at ambient temperature for lysis
7; Detector; 5 sec; Measure luminescence with ViewLux 1430 Ultra HTS (Perkin Elmer). Settings: Exposure = 5 sec, Gain = High, Speed = Slow, Binning = 2X
NOTES (numbers refer to sequence above)
1; HLA-B HiBit myoblasts cultured in GM - 4:1 ratio DMEM Glutamax (Thermo Fisher, 10566) : M199 (Thermo Fisher, 11150), 10% FBS (Hyclone Standard), 1% Pen/Strep, 50 ug/ml fetuin, 10 ng/ml hEGF, 1 ng/ml bhFGF, 10 ug/ml insulin, 0.4 ug/ml dexamethasone (supplements from Promocell, C-39360). […] Recombinant human IFN-beta (Peprotech, 300-02BC) was reconstituted in water, diluted in GM, and aliquots stored at -80C until day of use.
3; Control plate contained DMSO in columns 1 and 4, digitonin (Sigma, D141) cytotoxicity control in DMSO at 20 mM in column 2, and ruxolitinib (Selleckchem, S1378) inhibitor control in DMSO 16-point, 1:2 titration, high concentration = 17 mM in column 3. Digitonin and ruxolitinib stocks were reconstituted at 20 and 50 mM in DMSO and aliquots stored at -20C. Forty-eight compounds were added in an 11-point, 1:3 titration with a high final concentration of 46 uM by Pintool (Wako) from one library plates and one DMSO control plate
[…]
In the case of `C=CC(=O)Nc1ccc(F)c(-c2ncnc3[nH]cc(C(=O)OCC)c23)c1`, the Potency was inconclusive: 17.2 µM [inhibitor].
With `C=CC(=O)N1C[C@H](Nc2ncnc3[nH]ccc23)CC[C@@H]1C` the “activity change, negative = inhibition” value was inactive: -26.6%.
In the case of `CCn1c(C(=O)N(C2CC2)C2CC2)cc2c3c(ncn3C)c(Nc3cc(C)n(C)n3)nc21`, the Potency was inconclusive: 10.4 µM [inhibitor].
With `CC(C)(C)NC(=O)Nc1cccc(Nc2ncc(F)c(NC(C)(C)CO)n2)c1` the Potency was inconclusive: 11.7 µM [inhibitor].
With `N#C/C(=C\c1ccc(O)c(O)c1)C(=O)NCc1ccccc1` the “activity change, negative = inhibition” value was inactive: -0.854%.
With `O=C(Nc1ccc(-c2ccnc(Nc3ccc(N4CCOCC4)cc3)n2)cc1)[C@@H]1CCCN1` the Potency was inconclusive: 17.2 µM [inhibitor].
For `C[C@@H]1CCN(C(=O)CC#N)C[C@@H]1N(C)c1ncnc2[nH]ccc12`, the Potency was active: 2.16 µM.
In the case of `N#CC[C@H](C1CCCC1)n1cc(-c2ncnc3[nH]ccc23)cn1`, the Potency was active: 0.861 µM.
For `CC(C)(C)NS(=O)(=O)c1ccc(-c2ccc3[nH]nc(N)c3c2)cc1`, the Potency was inconclusive: 18.6 µM [inhibitor, partial curve].
With `CC(C)(O)C(=O)N1CCN(c2ccc(C(F)(F)F)c(C3=C(c4c[nH]c5ccccc45)C(=O)NC3=O)c2)CC1` the Potency was inconclusive: 20 µM [inhibitor].
In the case of `COc1cc2ncnc(Nc3ccc(O)cc3)c2cc1OC`, the “activity change, negative = inhibition” value was inactive: -22.8%.
